Measurements reported in the M2OR odorant receptor database.
Only a part is listed here, and it is no random draw. The calls were merged from several studies; some rest on single wells. Some of the results follow.

Chains of the proteins cited; added tags and fusions are not shown. A change or cut given only in a name is not applied to a line headed by its entry. A line that says so, or that is headed by a name, gives the form on record, which may keep a tag or linker.
UniProt Q8NGE8: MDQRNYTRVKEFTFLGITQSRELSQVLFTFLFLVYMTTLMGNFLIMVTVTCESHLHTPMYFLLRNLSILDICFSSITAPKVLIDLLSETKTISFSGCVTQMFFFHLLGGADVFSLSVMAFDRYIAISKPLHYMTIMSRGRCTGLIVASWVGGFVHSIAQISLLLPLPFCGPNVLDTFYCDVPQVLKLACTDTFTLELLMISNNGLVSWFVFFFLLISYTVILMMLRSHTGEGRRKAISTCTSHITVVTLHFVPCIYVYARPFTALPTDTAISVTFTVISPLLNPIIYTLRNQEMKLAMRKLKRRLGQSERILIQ
UniProt P0C645: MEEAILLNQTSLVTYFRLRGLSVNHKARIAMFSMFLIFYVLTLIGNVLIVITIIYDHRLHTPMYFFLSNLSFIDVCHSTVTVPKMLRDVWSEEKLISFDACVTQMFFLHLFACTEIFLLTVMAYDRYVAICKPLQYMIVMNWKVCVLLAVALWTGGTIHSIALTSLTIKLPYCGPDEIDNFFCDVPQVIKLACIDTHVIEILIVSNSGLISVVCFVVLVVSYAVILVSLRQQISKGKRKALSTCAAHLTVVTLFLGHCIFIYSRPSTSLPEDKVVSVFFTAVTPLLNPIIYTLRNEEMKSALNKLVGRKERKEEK
UniProt Q8NGA8: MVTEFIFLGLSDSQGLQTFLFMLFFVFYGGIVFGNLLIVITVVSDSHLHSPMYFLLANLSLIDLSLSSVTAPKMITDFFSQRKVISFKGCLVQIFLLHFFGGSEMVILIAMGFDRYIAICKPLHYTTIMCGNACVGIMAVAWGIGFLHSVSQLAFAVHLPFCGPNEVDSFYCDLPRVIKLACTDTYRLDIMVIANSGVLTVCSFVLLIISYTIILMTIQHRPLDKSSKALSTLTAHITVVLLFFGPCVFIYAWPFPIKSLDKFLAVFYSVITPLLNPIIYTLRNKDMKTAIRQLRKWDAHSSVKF
OR4D6, as listed by the source: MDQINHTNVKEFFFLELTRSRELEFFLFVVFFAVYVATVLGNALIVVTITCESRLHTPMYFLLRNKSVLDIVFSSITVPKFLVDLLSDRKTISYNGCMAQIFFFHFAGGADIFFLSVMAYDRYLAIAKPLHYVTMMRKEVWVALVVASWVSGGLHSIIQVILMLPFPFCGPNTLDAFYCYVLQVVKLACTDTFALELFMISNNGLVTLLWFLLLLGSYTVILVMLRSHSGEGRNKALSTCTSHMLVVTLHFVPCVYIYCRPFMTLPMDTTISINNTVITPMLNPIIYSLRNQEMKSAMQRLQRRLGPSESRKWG

Columns and labels:
Details in all cases: stereoisomer not certain
OR4D6 = tested on: OR4D6
In short: (§1)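 Each entry records the cell line, G-protein, co-transfected protein and tags used. Methods varied with the source, often transient luciferase assays in mammalian cell lines. A receptor–molecule pair is called responsive (active) if the original authors judged its signal statistically different from baseline and non-responsive (inactive) otherwise.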

OR4D9 (Homo sapiens) = OR4D9 (Homo sapiens) (UniProt Q8NGE8)
In short: as §1

OR4E2 = tested on: T1, OR4E2
T1 sequence (whole entry): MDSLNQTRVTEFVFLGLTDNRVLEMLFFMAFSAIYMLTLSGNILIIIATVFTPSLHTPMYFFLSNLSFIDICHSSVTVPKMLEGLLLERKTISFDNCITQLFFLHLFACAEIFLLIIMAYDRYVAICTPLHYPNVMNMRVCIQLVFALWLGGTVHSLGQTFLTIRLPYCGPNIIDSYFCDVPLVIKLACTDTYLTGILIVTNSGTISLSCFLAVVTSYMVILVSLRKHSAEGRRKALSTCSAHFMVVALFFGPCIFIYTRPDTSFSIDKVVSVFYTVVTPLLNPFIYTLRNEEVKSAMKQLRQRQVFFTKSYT
In short: as §1

OR4F15 (Homo sapiens) = target: T2, OR4F15 (Homo sapiens) (UniProt Q8NGB8)
T2 sequence (whole entry): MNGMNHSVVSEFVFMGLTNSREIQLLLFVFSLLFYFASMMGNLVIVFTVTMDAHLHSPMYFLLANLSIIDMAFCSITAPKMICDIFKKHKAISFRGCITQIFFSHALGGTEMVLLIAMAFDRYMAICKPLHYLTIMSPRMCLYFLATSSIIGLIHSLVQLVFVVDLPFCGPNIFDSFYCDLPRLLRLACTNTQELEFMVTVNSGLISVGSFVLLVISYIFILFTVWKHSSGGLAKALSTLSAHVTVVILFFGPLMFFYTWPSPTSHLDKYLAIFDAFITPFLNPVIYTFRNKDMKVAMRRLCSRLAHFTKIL
In short: as §1

OR4F3 (Homo sapiens) = target: T3, OR4F3 (Homo sapiens) (UniProt Q6IEY1)
T3 sequence (whole entry): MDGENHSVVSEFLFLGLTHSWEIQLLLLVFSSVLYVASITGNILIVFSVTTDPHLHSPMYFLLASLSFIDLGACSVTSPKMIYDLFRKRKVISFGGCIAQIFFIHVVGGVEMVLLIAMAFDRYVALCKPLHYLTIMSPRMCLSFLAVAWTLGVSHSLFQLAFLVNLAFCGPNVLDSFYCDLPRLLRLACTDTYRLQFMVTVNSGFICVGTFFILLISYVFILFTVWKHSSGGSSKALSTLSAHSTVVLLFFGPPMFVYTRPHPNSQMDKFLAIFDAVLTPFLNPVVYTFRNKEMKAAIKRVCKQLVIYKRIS
In short: as §1

OR4F3 = tested on: T4, OR4F3
T4 sequence (whole entry): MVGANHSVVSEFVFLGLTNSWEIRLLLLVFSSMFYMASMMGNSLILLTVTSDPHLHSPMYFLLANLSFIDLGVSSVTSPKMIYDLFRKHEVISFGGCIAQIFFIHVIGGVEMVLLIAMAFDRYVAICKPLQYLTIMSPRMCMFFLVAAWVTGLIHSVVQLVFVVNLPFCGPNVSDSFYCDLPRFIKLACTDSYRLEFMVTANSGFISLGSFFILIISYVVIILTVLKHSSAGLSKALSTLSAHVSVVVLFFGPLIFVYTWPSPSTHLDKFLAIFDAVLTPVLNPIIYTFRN
In short: as §1

OR4E1 (Homo sapiens) = OR4E1 (Homo sapiens) (UniProt P0C645)
In short: as §1

OR4E2 (Homo sapiens) = OR4E2 (Homo sapiens) (UniProt Q8NGC2)
In short: as §1

OR4F17 (Homo sapiens) = OR4F17 (Homo sapiens) (UniProt Q8NGA8)
In short: as §1

OR4F21 (Homo sapiens) = OR4F21 (Homo sapiens) (UniProt O95013)
In short: as §1

SMILES	odorant receptor agonist call (OR4D6)	odorant receptor agonist call (OR4D9 (Homo sapiens))	odorant receptor agonist call (OR4E2)	odorant receptor agonist call (OR4F15 (Homo sapiens))	odorant receptor agonist call (OR4F3 (Homo sapiens))	odorant receptor agonist call (OR4F3)	odorant receptor agonist call (OR4E1 (Homo sapiens))	odorant receptor agonist call (OR4E2 (Homo sapiens))	odorant receptor agonist call (OR4F17 (Homo sapiens))	odorant receptor agonist call (OR4F21 (Homo sapiens))
C=CC(C)(O)CCC=C(C)C (stereo not drawn)	inactive	inactive	inactive	inactive	inactive	inactive				
c1ccc(Oc2ccccc2)cc1	inactive	inactive	inactive	inactive	inactive	inactive				
c1cnccn1	inactive	inactive	inactive	inactive	inactive	inactive				
COc1ccccc1O	inactive	inactive	inactive	inactive	inactive	inactive				
CC1COCc2cc3c(cc21)C(C)(C)C(C)C3(C)C (stereo not drawn)	inactive	active	active	active	active	inactive	inactive			
CC(C)(C)c1ccc(CCC=O)cc1	inactive	inactive	inactive	inactive	inactive	inactive				
CCCCCCCCCCC=O	inactive	inactive	inactive	inactive	inactive	inactive				
CC(=O)OC1CC2CCC1(C)C2(C)C (stereo not drawn)	inactive	inactive	inactive	inactive	inactive	inactive				
CC(=O)OC(C)(C)C1CC=C(C)CC1 (stereo not drawn)	inactive	inactive	inactive	inactive	inactive	inactive				
CCCCCC(C)=O	inactive	inactive	inactive	inactive	inactive	inactive				
CC=Cc1ccc(O)c(OC)c1	inactive	inactive	inactive	inactive	inactive	inactive				
CC12C=CCC1C1CCC3=CC(=O)CCC3(C)C1CC2 (stereo not drawn)	inactive	inactive	inactive	inactive	inactive	inactive				
CCCCCCOC(=O)CCC	inactive	inactive	inactive	inactive	inactive	inactive				
CC(=O)c1ccccc1	inactive	inactive	inactive	inactive	inactive	inactive				
CCCCCCCCOC(C)=O	inactive	inactive	inactive	inactive	inactive	inactive				
COC(=O)c1ccccc1	inactive	inactive	inactive	inactive	inactive	active				
C=CCc1ccc(OC)c(OC)c1	inactive	inactive	inactive	inactive	inactive	inactive				
O=C1CCCCCCCCCCCC(=O)OCCO1	inactive	inactive	inactive	inactive	inactive	inactive				
CC(C)CC(=O)O	inactive	inactive	inactive	inactive	inactive	inactive				
COc1cc(C=O)ccc1O	inactive	inactive	inactive	inactive	inactive	inactive				
CCCCCOC(C)=O	inactive	inactive	inactive	inactive	inactive	inactive	inactive			
CCC=CCCO	inactive	inactive	inactive	inactive	inactive	inactive				
O=C1CCCCC1	inactive	inactive	inactive	inactive	inactive	inactive				
CC1=CCC(C(C)(C)O)CC1 (stereo not drawn)	inactive	inactive	inactive	inactive	inactive	inactive				
CC(C)=CCCC(C)=CC=O	inactive	inactive	inactive	inactive	inactive	inactive				

Random excerpt: 4 compounds from above
SMILES	odorant receptor agonist call (OR4D6)	odorant receptor agonist call (OR4D9 (Homo sapiens))	odorant receptor agonist call (OR4E2)	odorant receptor agonist call (OR4F15 (Homo sapiens))	odorant receptor agonist call (OR4F3 (Homo sapiens))	odorant receptor agonist call (OR4F3)	odorant receptor agonist call (OR4E1 (Homo sapiens))	odorant receptor agonist call (OR4E2 (Homo sapiens))	odorant receptor agonist call (OR4F17 (Homo sapiens))	odorant receptor agonist call (OR4F21 (Homo sapiens))
CCC=CCCO	inactive	inactive	inactive	inactive	inactive	inactive				
O=C1CCCCCCCCCCCC(=O)OCCO1	inactive	inactive	inactive	inactive	inactive	inactive				
CC(C)=CCCC(C)=CC=O	inactive	inactive	inactive	inactive	inactive	inactive				
C=CC(C)(O)CCC=C(C)C (stereo not drawn)	inactive	inactive	inactive	inactive	inactive	inactive				

(listing goes on)

SMILES	odorant receptor agonist call (OR4D6)	odorant receptor agonist call (OR4D9 (Homo sapiens))	odorant receptor agonist call (OR4E2)	odorant receptor agonist call (OR4F15 (Homo sapiens))	odorant receptor agonist call (OR4F3 (Homo sapiens))	odorant receptor agonist call (OR4F3)	odorant receptor agonist call (OR4E1 (Homo sapiens))	odorant receptor agonist call (OR4E2 (Homo sapiens))	odorant receptor agonist call (OR4F17 (Homo sapiens))	odorant receptor agonist call (OR4F21 (Homo sapiens))
CCCCO	inactive	inactive	inactive	inactive	inactive	inactive				
C=CCSCC=C	inactive	inactive	inactive	inactive	inactive	inactive				
CC12CCC(CC1)C(C)(C)O2	inactive	inactive	inactive	inactive	inactive	inactive				
CCCCCCCC=CC=O	inactive	inactive	inactive	inactive	inactive	active				
CC(=O)C(C)=O	inactive	inactive	inactive	inactive	inactive	inactive				
COC(=O)c1ccccc1O	inactive	inactive	inactive	inactive	inactive	inactive				
CCCCCCCC=O	inactive	inactive	inactive	inactive	inactive	inactive				
CC12CCC(C1)C(C)(C)C2=O (stereo not drawn)	inactive	inactive	inactive	inactive	inactive	inactive				
CC12C=CCC1C1CCC3CC(=O)CCC3(C)C1CC2 (stereo not drawn)	active		inactive	inactive	inactive	inactive		inactive	inactive	inactive
O=C1CCCCCCCCCCCCCCO1	inactive	inactive	inactive	inactive	inactive	inactive				
CC1CCC(C(C)C)C(O)C1 (stereo not drawn)	inactive	inactive	inactive	inactive	inactive	inactive				
CCC1(O)C2(C)CCC(C2)C1(C)C (stereo not drawn)	inactive	inactive	inactive	inactive	inactive	inactive				
CC(C)C(=O)O	inactive	inactive	inactive	inactive	inactive	inactive				
CC(=O)OCC=C(C)CCC=C(C)C	inactive	inactive	inactive	inactive	inactive	inactive				
CC1=NC(C)SC1C (stereo not drawn)	inactive	inactive	inactive	inactive	inactive	inactive				
CC(C)CCC(=O)O	inactive	inactive	inactive	inactive	inactive	inactive				
C=CCc1ccc(OC(C)=O)c(OC)c1	inactive	inactive	inactive	inactive	inactive	inactive				
CCCCCCCCCC=O	inactive	inactive	inactive	inactive	inactive	inactive				
O=CCc1ccccc1	inactive	inactive	inactive	inactive	inactive	inactive				
CCCC(=O)O	inactive	inactive	inactive	inactive	inactive	inactive				
CC(C)C=O	inactive	inactive	inactive	inactive	inactive	inactive				
COc1cc(C)ccc1O	inactive	inactive	inactive	inactive	inactive	inactive				
CCCCCCCOC(C)=O	inactive	inactive	inactive	inactive	inactive	inactive				
CCCCCC(=O)O	inactive	inactive	inactive	inactive	inactive	inactive				
